System: Canines
Assay: Myocardial BOLD CMR, 2D T2 maps post regadenoson (Example 1)
Type: in vivo
Procedure: Canines (n=7) were studied in a PET/MR system. MR acquisitions were used to generate short-axis 2D T2 maps; and the PET acquisitions following ^[…]-ammonia infusion were used to quantify myocardial blood flow (MBF). Initially, 2D T2 maps and PET signals were acquired at rest. Subsequently, regadenoson (2.5 μg/kg) was administrated. T2 maps were acquired at 2- and 10-mins p.r.a and PET signals were acquired at 10-mins p.r.a. Standard deviation (a) of myocardial T2 values was measured at rest, 2- and 10-mins p.r.a from T2 maps and were used to determine Myocardial BOLD Variability (MBV, defined as σT2(stress)/σT2(rest)) at 2- and 10-min p.r.a. Similarly, using the mean T2 values, Myocardial BOLD Response (MBR, defined as T2(stress)/T2(rest)) was computed at 10-mins p.r.a. PET images were analyzed with qPET software to determine MBF and MPR at rest and 10-mins p.r.a and were regressed against MBR.

In the case of `CNC(=O)c1cnn(-c2nc(N)c3ncn([C@@H]4O[C@H](CO)[C@@H](O)[C@H]4O)c3n2)c1` [regadenoson], the “Myocardial BOLD Variability (MBV, σT2(stress)/σT2(rest))” value (2-mins post regadenoson administration) is reported as 1.6±0.9 and the “Myocardial BOLD Variability (MBV, σT2(stress)/σT2(rest))” value (10-mins post regadenoson administration) is reported as 1.0±0.3.

Reference: patent US11445912B2, “Robust myocardial blood oxygen level dependent magnetic resonance imaging with long acting coronary vasodilators” (Cedars-Sinai Medical Center, priority 2015, dated 2022)
